Measured values taken from publication PMC6812009, “Covalent Aurora A regulation by the metabolic integrator coenzyme A” (Redox Biology, 2019).
Results are given in words; binding and its absence hold for the method and conditions named.

Molecular target: purified Aurora A Cys290Ala (human) (UniProt O14965)
Assay: non-reducing SDS-PAGE; purified Aurora A briefly exposed to peroxide; reducing compared with non-reducing SDS-PAGE; dimer sensitive to DTT; both purified

binding: no binding
B1: purified Aurora A Cys290Ala (enzyme, UniProt O14965 1-403)
chain: MDRSKENCISGPVKATAPVGGPKRVLVTQQFPCQNPLPVNSGQAQRVLCPSNSSQRIPLQAQKLVSSHKPVQNQKQKQLQATSVPHPVSRPLNNTQKSKQPLPSAPENNPEEELASKQKNEESKKRQWALEDFEIGRPLGKGKFGNVYLAREKQSKFILALKVLFKAQLEKAGVEHQLRREVEIQSHLRHPNILRLYGYFHDATRVYLILEYAPLGTVYRELQKLSKFDEQRTATYITELANALSYCHSKRVIHRDIKPENLLLGSAGELKIADFGWSVHAPSSRRTTLAGTLDYLPPEMIEGRMHDEKVDLWSLGVLCYEFLVGKPPFEANTYQETYKRISRVEFTFPDFVTEGARDLISRLLKHNPSQRPMLREVLEHPWITANSSKPSNCQNKESASKQS
